PubChem BioAssay AID1259254 | NCATS – 2017

Test: 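Finding genes that stop cells copying their DNA twice in one cycle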 (primary screen)
Cells: human HCT116 colorectal cancer cells
Reagents: single siRNA against human genes
Timing: 3 days
Measured: 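Imaged Hoechst DNA stain sorts each cell into a cycle phase by DNA amount; per plate, G2 fraction set to 0% for non-targeting and 100% for GMNN siRNA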
Direction: G2 robust z-score and G2 cells, % of GMNN control: higher = more G2 cells, more excess DNA replication; raw share of cells in G2: higher = larger share of cells with G2 DNA content
Call rule: 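An siRNA counts as active if its G2 robust z-score lies at least 5 MADs above the screen median; here such calls match roughly 38% of GMNN control or more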
The whole screen tested about 59,000 reagents; shown is a random part of them. Over the whole deposit, about 1,550 (2.6%) got an active call. 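G2 share is only a proxy for re-replication; each gene was hit by three separate siRNAs, and active genes were retested.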 Raw values vary from plate to plate and are shown uncorrected. Entries without a mark were called inactive. Reagents against one gene are numbered here. The record does not give: the amount of reagent.

target	reagent	G2 robust z-score	G2 cells, % of GMNN control	raw share of cells in G2 (%)
RPL10 (GeneID 6134)	1	1.74	15.2	11.4
RPL10 (GeneID 6134)	2	4.23	32.7	17.1
RPL10 (GeneID 6134)	3	1.68	14.8	8.69
MCIDAS (GeneID 345643)	1	-0.678	-1.8	3.37
MCIDAS (GeneID 345643)	2	-0.901	-3.37	1.78
MCIDAS (GeneID 345643)	3	2.49	20.5	12.4
SORBS1 (GeneID 10580)	1	1.99	17	11.6
SORBS1 (GeneID 10580)	2	0.466	6.25	6.71
SORBS1 (GeneID 10580)	3	-0.696	-1.93	2.45
TMEM161BP1 (GeneID 646360)	1	0.507	6.54	5.12
TMEM161BP1 (GeneID 646360)	2	0.708	7.95	6.78
TMEM161BP1 (GeneID 646360)	3	0.029	3.17	4.4
CLN3 (GeneID 1201)	1	-0.384	0.266	3.57
CLN3 (GeneID 1201)	2	-1.51	-7.68	1.25
CLN3 (GeneID 1201)	3	1.4	12.8	7.75
SNX29 (GeneID 92017)	1	-0.797	-2.64	2.09
SNX29 (GeneID 92017)	2	-1.23	-5.72	2.2
SNX29 (GeneID 92017)	3	-0.925	-3.54	2.41
SNX29 (GeneID 92017)	4	0.509	6.55	4.39
SNX29 (GeneID 92017)	5	-0.557	-0.955	3.68
SNX29 (GeneID 92017)	6	-0.246	1.24	3.39
PABPC5 (GeneID 140886)	1	-0.456	-0.243	5.84
PABPC5 (GeneID 140886)	2	-0.132	2.04	5.56
PABPC5 (GeneID 140886)	3	-0.111	2.18	5.5

Entries listed so far whose target name begins with C or c:
target	reagent	G2 robust z-score	G2 cells, % of GMNN control	raw share of cells in G2 (%)
CLN3 (GeneID 1201)	1	-0.384	0.266	3.57
CLN3 (GeneID 1201)	2	-1.51	-7.68	1.25
CLN3 (GeneID 1201)	3	1.4	12.8	7.75

Further reagents:
target	reagent	G2 robust z-score	G2 cells, % of GMNN control	raw share of cells in G2 (%)
CYP2C19 (GeneID 1557)	1	0.851	8.96	8.16
CYP2C19 (GeneID 1557)	2	2.55	20.9	12.6
CYP2C19 (GeneID 1557)	3	2.85	23	12
POMT1 (GeneID 10585)	1	1.38	12.7	11.5
POMT1 (GeneID 10585)	2	0.0452	3.29	7.12
POMT1 (GeneID 10585)	3	0.161	4.1	5.17
PRR25 (GeneID 388199)	1	0.616	7.3	7.76
PRR25 (GeneID 388199)	2	0.333	5.31	5.59
PRR25 (GeneID 388199)	3	0.0921	3.62	4.98
FMR1 (GeneID 2332)	1	-0.137	2	5.96
FMR1 (GeneID 2332)	2	2.17	18.3	12.2
FMR1 (GeneID 2332)	3	-0.456	-0.243	3.57
MUC13 (GeneID 56667)	1	-0.372	0.349	4.48
MUC13 (GeneID 56667)	2	0.954	9.68	9.08
MUC13 (GeneID 56667)	3	-0.377	0.313	3.13
DDX53 (GeneID 168400)	1	-0.786	-2.56	4.73
DDX53 (GeneID 168400)	2	-0.00522	2.93	5.77
DDX53 (GeneID 168400)	3	-0.241	1.28	5.24
TNXB (GeneID 7148)	1	1.46	13.2	11.2
TNXB (GeneID 7148)	2	0.141	3.96	5.78
TNXB (GeneID 7148)	3	-0.69	-1.89	3.56
PPAT (GeneID 5471)	1	0.495	6.45	7.2
PPAT (GeneID 5471)	2	-1.3	-6.16	2.33
PPAT (GeneID 5471)	3	-0.314	0.757	4.4
